Measured values as given in publication PMC8545117.
These are yes or no findings as the source states them, for the method shown. In cells and extracts the contact can be indirect. Some entries that bind do so weakly or less than the wild type.

Amino acid sequences for entries named in this document (tags omitted).
UniProt P30718: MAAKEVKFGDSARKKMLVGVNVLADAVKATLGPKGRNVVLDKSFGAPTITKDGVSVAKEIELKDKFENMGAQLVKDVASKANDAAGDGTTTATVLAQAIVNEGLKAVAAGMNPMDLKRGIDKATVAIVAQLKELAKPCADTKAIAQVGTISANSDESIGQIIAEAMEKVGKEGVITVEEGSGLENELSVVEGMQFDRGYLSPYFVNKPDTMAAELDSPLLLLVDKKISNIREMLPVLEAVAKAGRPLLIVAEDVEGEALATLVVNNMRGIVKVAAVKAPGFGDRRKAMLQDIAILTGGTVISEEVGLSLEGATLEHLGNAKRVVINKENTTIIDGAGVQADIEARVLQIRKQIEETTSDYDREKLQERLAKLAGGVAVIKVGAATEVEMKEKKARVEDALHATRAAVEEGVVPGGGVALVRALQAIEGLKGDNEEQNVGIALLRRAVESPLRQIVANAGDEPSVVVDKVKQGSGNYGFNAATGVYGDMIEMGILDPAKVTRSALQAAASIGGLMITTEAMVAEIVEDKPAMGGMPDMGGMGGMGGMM
UniProt Q9HWC9: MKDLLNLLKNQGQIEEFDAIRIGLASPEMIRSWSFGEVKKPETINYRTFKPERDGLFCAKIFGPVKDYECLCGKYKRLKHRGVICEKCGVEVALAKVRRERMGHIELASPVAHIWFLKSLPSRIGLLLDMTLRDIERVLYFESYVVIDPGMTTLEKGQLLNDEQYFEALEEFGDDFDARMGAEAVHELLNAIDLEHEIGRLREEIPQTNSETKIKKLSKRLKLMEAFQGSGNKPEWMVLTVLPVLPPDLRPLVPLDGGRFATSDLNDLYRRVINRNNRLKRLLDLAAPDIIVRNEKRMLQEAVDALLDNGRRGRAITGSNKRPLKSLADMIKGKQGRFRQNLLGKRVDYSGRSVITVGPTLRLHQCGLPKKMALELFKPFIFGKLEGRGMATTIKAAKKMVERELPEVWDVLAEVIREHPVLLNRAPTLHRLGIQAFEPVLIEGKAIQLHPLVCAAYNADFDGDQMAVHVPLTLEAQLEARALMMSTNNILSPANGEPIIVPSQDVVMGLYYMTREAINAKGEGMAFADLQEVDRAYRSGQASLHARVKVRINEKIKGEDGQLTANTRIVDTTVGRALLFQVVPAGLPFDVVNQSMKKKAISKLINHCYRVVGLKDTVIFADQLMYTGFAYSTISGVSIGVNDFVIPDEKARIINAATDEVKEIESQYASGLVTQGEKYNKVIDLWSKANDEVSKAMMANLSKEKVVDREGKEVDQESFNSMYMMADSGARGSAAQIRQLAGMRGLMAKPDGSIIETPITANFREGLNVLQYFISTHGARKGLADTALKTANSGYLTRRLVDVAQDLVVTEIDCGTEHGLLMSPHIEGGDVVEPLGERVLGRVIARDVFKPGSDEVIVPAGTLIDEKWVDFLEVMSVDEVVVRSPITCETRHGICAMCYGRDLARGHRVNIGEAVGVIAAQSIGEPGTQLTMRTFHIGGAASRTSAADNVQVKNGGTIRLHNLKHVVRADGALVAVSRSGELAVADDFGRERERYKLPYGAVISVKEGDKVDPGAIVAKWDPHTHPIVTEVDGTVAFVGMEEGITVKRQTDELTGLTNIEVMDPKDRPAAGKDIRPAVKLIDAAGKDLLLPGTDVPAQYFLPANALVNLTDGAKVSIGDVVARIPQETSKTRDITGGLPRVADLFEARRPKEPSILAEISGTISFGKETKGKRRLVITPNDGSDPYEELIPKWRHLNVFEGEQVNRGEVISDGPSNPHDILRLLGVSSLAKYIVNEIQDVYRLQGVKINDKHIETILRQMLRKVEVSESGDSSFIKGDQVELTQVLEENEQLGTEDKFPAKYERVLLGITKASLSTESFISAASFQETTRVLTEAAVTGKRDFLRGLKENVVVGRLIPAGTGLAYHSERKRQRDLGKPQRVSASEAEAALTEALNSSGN
UniProt O52760: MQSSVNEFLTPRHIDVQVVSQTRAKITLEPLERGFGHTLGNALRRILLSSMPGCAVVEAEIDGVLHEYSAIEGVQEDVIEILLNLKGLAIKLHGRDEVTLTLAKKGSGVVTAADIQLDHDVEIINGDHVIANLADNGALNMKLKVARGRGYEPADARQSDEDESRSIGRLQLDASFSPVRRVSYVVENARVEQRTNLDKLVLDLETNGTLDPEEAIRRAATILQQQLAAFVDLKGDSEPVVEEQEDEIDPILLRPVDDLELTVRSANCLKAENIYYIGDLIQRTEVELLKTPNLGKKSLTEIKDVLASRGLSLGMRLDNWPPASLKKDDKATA
UniProt Q51561: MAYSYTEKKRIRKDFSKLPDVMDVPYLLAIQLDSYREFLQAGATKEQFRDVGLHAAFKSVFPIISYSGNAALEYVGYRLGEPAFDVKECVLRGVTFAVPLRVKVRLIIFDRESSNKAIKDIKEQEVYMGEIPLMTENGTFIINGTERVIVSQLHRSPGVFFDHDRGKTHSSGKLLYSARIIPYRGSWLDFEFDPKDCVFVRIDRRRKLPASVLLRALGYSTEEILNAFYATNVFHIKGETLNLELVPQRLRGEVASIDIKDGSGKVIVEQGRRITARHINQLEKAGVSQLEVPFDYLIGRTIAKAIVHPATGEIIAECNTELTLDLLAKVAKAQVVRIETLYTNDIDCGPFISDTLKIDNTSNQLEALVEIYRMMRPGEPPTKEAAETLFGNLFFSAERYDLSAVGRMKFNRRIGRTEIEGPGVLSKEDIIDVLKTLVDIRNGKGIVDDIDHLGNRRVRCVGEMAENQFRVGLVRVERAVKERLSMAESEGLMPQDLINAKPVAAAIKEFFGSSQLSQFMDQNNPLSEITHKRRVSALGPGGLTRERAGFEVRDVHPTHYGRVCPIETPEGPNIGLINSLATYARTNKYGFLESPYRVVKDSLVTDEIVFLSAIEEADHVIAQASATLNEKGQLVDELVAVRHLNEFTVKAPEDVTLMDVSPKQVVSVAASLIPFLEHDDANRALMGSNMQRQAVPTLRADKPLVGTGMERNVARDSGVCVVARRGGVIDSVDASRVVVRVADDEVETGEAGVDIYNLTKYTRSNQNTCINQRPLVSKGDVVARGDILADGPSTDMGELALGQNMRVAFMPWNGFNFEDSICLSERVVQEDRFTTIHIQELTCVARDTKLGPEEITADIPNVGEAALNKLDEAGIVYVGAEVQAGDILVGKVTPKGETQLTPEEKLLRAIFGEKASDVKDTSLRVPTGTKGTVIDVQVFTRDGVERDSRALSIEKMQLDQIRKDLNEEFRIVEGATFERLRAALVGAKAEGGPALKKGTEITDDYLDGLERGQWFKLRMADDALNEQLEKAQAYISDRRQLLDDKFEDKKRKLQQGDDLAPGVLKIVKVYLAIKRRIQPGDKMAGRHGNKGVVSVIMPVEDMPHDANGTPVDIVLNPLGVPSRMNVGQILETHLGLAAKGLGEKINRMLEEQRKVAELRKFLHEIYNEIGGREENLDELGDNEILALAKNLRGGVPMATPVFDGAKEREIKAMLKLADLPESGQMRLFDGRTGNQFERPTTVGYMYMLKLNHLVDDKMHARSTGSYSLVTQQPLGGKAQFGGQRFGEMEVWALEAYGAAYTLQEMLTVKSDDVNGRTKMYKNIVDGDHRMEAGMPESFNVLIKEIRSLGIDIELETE

What was measured:
[1] = molecular target: GroEL (P. aeruginosa (endogenous in strain PAO1)) (UniProt P30718); assay: co-sedimentation; Grad-seq: cleared lysate of P. aeruginosa PAO1 (LB, OD600 0.3) on a linear 10% to 40% (wt/vol) glycerol gradient, SW40Ti, 100,000 x g, 17 h, 4°C; 20 fractions and pellet analysed by SDS-PAGE and nanoLC-MS/MS; lysis buffer 20 mM Tris-HCl pH 7.5, 150 mM KCl, 1 mM MgCl2, 1 mM DTT, 0.2% Triton X-100
[2] = molecular target: RNA polymerase subunit beta' RpoC (P. aeruginosa (endogenous in strain PAO1)) (UniProt Q9HWC9); assay: as above

GroEL (from UniProt P30718 1-547)
binding [1]: binds

RNA polymerase subunit alpha RpoA (from UniProt O52760 1-333)
binding [2]: binds

RNA polymerase subunit beta RpoB (from UniProt Q51561 1-1357)
binding [2]: binds

B1: RNA polymerase subunit omega RpoZ (protein, UniProt B7V5M8 1-88)
chain: MARVTVEDCLDNVDNRFELVMLATKRARQLATGGKEPKVAWENDKPTVVALREIASGLVDENVVQQEDIVEDEPLFAAFDDEANTEAL
binding [2]: binds

B2: GroES (protein, UniProt P30720 1-97)
chain: MKLRPLHDRVVIRRSEEETKTAGGIVLPGSAAEKPNRGEVVAVGTGRVLDNGEVRALAVKVGDKVVFGPYSGSNAIKVDGEELLVMGESEILAVLED
binding [1]: no binding
